These are yes or no findings as the source states them, for the method shown. Binding seen in cells or lysates may run through a third protein. For part of these data: Binding can be weak; no strength is given. Tags and fused reporters may be left off the sequences shown.
B1: C-terminally Flag-tagged SPCS1 (protein, UniProt Q9Y6A9 1-169)
chain: MARGGDTGCTGPSETSASGAAAIALPGLEGPATDAQCQTLPLTVLKSRSPSPRSLPPALSCPPPQPAMLEHLSSLPTQMDYKGQKLAEQMFQGIILFSAIVGFIYGYVAEQFGWTVYIVMAGFAFSCLLTLPPWPIYRRHPLKWLPVQESSTDDKKPGERKIKRHAKNN
B2: signal peptidase complex subunit 1 (protein, UniProt Q9Y6A9 1-169)
chain: B1 chain

Experiments:
[1] = biological target: GFP-tagged DS1-VP7 (human rotavirus DS1 strain (G2P[4])); assay: co-IP; HEK293 cells transfected, NP40 lysis buffer; anti-GFP antibody or mouse IgG1 isotype control on Dynabeads protein G, overnight at 4°C; immunoblot with anti-GFP and anti-FLAG or anti-SPCS1
[2] = biological target: GFP-tagged rotavirus non-structural protein NSP4 (rotavirus, strain not stated); assay: as above

| Binder | binding [1] | binding [2] |
| --- | --- | --- |
| B1 | binds | no binding |
| B2 | binds |  |

Source: publication PMC13043047
